In article PMC3598860:
No constants are given. Whether binding was seen depends on the method and setting. Binding seen in cells or lysates may run through a third protein. A result given as binding can be weak or reduced; the word gives no strength. For some assays here: Tags and fused reporters may be left off the sequences shown.

The chains behind the UniProt entries cited, without tags or fusion partners.
UniProt Q13616: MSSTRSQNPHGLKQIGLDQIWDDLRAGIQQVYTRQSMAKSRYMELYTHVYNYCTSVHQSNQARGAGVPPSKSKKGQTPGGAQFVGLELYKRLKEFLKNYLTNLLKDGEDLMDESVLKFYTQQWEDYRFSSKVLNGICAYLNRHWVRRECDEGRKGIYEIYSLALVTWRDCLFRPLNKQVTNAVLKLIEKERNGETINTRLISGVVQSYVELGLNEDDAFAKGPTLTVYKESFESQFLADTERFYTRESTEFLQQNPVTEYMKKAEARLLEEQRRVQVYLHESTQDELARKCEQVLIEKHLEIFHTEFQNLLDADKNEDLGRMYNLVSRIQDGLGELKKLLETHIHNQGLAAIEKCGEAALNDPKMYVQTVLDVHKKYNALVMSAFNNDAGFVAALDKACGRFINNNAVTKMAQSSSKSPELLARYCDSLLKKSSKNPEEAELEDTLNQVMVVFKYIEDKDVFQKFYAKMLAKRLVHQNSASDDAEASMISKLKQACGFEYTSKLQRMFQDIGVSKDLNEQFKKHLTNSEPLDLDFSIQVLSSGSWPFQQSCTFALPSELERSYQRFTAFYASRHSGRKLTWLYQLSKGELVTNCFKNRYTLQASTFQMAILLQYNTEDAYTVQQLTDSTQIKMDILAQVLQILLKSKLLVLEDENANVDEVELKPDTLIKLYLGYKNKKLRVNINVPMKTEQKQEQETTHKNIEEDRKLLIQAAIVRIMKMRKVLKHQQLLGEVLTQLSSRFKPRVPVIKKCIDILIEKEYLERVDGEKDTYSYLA

How the values were obtained:
HA-Brap2 WT (human) = biological target: T1, HA-Brap2 WT (human) (UniProt Q7Z569); assay: co-IP; transfected HEK293 or HEK293T cells; lysis in 20 mM Tris-HCl pH 7.5, 150 mM NaCl, 1 mM EDTA, 0.5% NP-40; anti-Flag M2 agarose or anti-HA agarose, 2 hours at 4°C; immunoblot; in some panels cells treated with MLN4924, MG132 or 5 ng/ml TNF-α
T1 sequence: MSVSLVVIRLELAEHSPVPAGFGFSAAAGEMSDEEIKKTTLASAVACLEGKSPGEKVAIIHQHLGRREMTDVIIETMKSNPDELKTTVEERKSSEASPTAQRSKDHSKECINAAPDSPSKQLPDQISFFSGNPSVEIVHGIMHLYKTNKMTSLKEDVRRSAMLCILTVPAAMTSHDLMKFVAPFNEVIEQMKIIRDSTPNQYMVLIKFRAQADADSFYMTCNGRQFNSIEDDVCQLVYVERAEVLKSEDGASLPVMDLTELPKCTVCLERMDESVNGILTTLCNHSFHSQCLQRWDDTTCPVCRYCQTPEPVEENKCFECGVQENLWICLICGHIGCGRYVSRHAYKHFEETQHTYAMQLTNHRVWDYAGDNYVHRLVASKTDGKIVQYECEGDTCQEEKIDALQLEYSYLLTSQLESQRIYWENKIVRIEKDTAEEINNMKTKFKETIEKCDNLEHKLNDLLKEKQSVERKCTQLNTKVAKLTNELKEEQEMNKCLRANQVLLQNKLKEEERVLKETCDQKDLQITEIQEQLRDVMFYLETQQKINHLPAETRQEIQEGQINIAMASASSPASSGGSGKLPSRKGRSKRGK

HA-Cul1 = HA-Cul1 (UniProt Q13616); assay: as above

In the case of “Flag-Brap2 CA (single mutation at cysteine-264 in the RING-finger domain) (from UniProt Q7Z569)”, the binding (HA-Brap2 WT (human)) is reported as “binds” and the binding (HA-Cul1) is reported as “binds weakly”.
